According to patent US8349851B2, “JAK kinase modulating compounds and methods of use thereof” (Ambit Biosciences Corp., priority 2009, dated 2013):

Test system: 321 distinct kinases
Assay: Kinase selectivity score from competition binding panel
Settings: kinases with inhibition of 90% or greater divided by 321 distinct kinases tested

Compound	S Score (at 10 μM)
Fc1ccc(C(F)(F)c2nc(Nc3cc(C4CC4)[nH]n3)c3ccccc3n2)cc1 [Example 10, N-(5-cyclopropyl-1H-pyrazol-3-yl)-2-(difluoro(4-fluorophenyl)methyl)quinazolin-4-amine]	D (D > 0.5)
Cc1cc(Nc2nc(C(=O)c3ccc(F)cc3)nc3cc(C(F)(F)F)ccc23)n[nH]1 [Example 17, (4-fluorophenyl)(4-(5-methyl-1H-pyrazol-3-ylamino)-7-(trifluoromethyl)quinazolin-2-yl)methanone]	A (A ≦ 0.3)
Cc1cc(Nc2nc(C(=O)c3ccc(F)cc3)nc3cc(F)ccc23)n[nH]1 [Example 19, (7-fluoro-4-(5-methyl-1H-pyrazol-3-ylamino)quinazolin-2-yl)(4-fluorophenyl)methanone]	A (A ≦ 0.3)
Cc1cc(Nc2nc(C(F)(F)c3ccc(F)cc3)nc3cc(F)ccc23)n[nH]1 [Example 20, 2-(difluoro(4-fluorophenyl)methyl)-7-fluoro-N-(5-methyl-1H-pyrazol-3-yl)quinazolin-4-amine]	A (A ≦ 0.3)
Fc1ccc(C(F)(F)c2nc(Nc3cc[nH]n3)c3ccc(F)cc3n2)cc1 [Example 21, 2-(difluoro(4-fluorophenyl)methyl)-7-fluoro-N-(1H-pyrazol-3-yl)quinazolin-4-amine]	A (A ≦ 0.3)
O=C(c1ccc(F)cc1)c1nc(Nc2cc[nH]n2)c2ccc(I)cc2n1 [Example 22, (4-(1H-pyrazol-3-ylamino)-7-iodoquinazolin-2-yl)(4-fluorophenyl)methanone]	A (A ≦ 0.3)
Cc1ccc2c(Nc3cc(C)[nH]n3)nc(C(=O)c3ccc(F)cc3)nc2c1 [Example 24, (4-fluorophenyl)(7-methyl-4-(5-methyl-1H-pyrazol-3-ylamino)quinazolin-2-yl)methanone]	A (A ≦ 0.3)
Cc1ccc2c(Nc3cc(C)[nH]n3)nc(C(F)(F)c3ccc(F)cc3)nc2c1 [Example 26, 2-(difluoro(4-fluorophenyl)methyl)-7-methyl-N-(5-methyl-1H-pyrazol-3-yl)quinazolin-4-amine]	A (A ≦ 0.3)
Cc1ccc2c(Nc3cc[nH]n3)nc(C(F)(F)c3ccc(F)cc3)nc2c1 [Example 27, 2-(difluoro(4-fluorophenyl)methyl)-7-methyl-N-(1H-pyrazol-3-yl)quinazolin-4-amine]	A (A ≦ 0.3)
COc1ccc2c(Nc3cc[nH]n3)nc(C(=O)c3ccc(F)cc3)nc2c1 [Example 28, (4-(1H-pyrazol-3-ylamino)-7-methoxyquinazolin-2-yl)(4-fluorophenyl)methanone]	A (A ≦ 0.3)
COc1ccc2c(Nc3cc(C)[nH]n3)nc(C(=O)c3ccc(F)cc3)nc2c1 [Example 30, (4-fluorophenyl)(7-methoxy-4-(5-methyl-1H-pyrazol-3-ylamino)quinazolin-2-yl)methanone]	A (A ≦ 0.3)
COc1ccc2c(Nc3cc(C)[nH]n3)nc(C(F)(F)c3ccc(F)cc3)nc2c1 [Example 32, 2-(difluoro(4-fluorophenyl)methyl)-7-methoxy-N-(5-methyl-1H-pyrazol-3-yl)quinazolin-4-amine]	A (A ≦ 0.3)
COc1ccc2c(Nc3cc[nH]n3)nc(C(F)(F)c3ccc(F)cc3)nc2c1 [Example 33, 2-(difluoro(4-fluorophenyl)methyl)-7-methoxy-N-(1H-pyrazol-3-yl)quinazolin-4-amine]	A (A ≦ 0.3)
Cc1cc(Nc2nc(C(F)(F)c3ccc(F)cc3)nc3c(F)cccc23)n[nH]1 [Example 34, 2-(difluoro(4-fluorophenyl)methyl)-8-fluoro-N-(5-methyl-1H-pyrazol-3-yl)quinazolin-4-amine]	B (0.3 < B ≦ 0.4)
COc1cccc2c(Nc3cc[nH]n3)nc(C(=O)c3ccc(F)cc3)nc12 [Example 35, (4-(1H-pyrazol-3-ylamino)-8-methoxyquinazolin-2-yl)(4-fluorophenyl)methanone]	A (A ≦ 0.3)
Cc1cc(Nc2nc(C(=O)c3ccc(F)cc3)nc3cc(O)ccc23)n[nH]1 [Example 37, (4-fluorophenyl)(7-hydroxy-4-(5-methyl-1H-pyrazol-3-ylamino)quinazolin-2-yl)methanone]	A (A ≦ 0.3)
Cc1cc(Nc2nc(C(O)c3ccc(F)cc3)nc3cc(OC4CCNCC4)ccc23)n[nH]1 (centres unmarked) [Example 41, (4-fluorophenyl)(4-(5-methyl-1H-pyrazol-3-ylamino)-7-(piperidin-4-yloxy)quinazolin-2-yl)methanol]	D (D > 0.5)
Cc1cc(Nc2nc(C(F)(F)c3ccc(F)cc3)nc3cc(CO)ccc23)n[nH]1 [Example 49, (2-(difluoro(4-fluorophenyl)methyl)-4-(5-methyl-1H-pyrazol-3-ylamino)quinazolin-7-yl)methanol]	D (D > 0.5)

Compound	S Score (at 10 μM)
Cc1cc(Nc2nc(C(F)(F)c3ccc(F)cc3)nc3cc(CS(C)(=O)=O)ccc23)n[nH]1 [Example 50, 2-(difluoro(4-fluorophenyl)methyl)-N-(5-methyl-1H-pyrazol-3-yl)-7-(methylsulfonylmethyl)quinazolin-4-amine]	C (0.4 < C ≦ 0.5)
CCOCc1ccc2c(Nc3cc(C)[nH]n3)nc(C(F)(F)c3ccc(F)cc3)nc2c1 [Example 51, 2-(Difluoro(4-fluorophenyl)methyl)-7-(ethoxymethyl)-N-(5-methyl-1H-pyrazol-3-yl)quinazolin-4-amine]	B (0.3 < B ≦ 0.4)
Cc1cc(Nc2nc(C(=O)c3ccc(F)cc3)nc3ccc(F)cc23)n[nH]1 [Example 53, (6-fluoro-4-(5-methyl-1H-pyrazol-3-ylamino)quinazolin-2-yl)(4-fluorophenyl)methanone]	A (A ≦ 0.3)
Cc1cc(Nc2nc(C(=O)c3ccc(F)cc3)nc3cc(Br)ccc23)n[nH]1 [Example 56, (7-bromo-4-(5-methyl-1H-pyrazol-3-ylamino)quinazolin-2-yl)(4-fluorophenyl)methanone]	A (A ≦ 0.3)
Cc1cc(Nc2nc(C(O)c3ccc(F)cc3)nc3cc(Br)ccc23)n[nH]1 (centres unmarked) [Example 57, (7-bromo-4-(5-methyl-1H-pyrazol-3-ylamino)quinazolin-2-yl)(4-fluorophenyl)methanol]	A (A ≦ 0.3)
Cc1cc(Nc2nc(C3(c4ccc(F)cc4)OCCO3)nc3ccccc23)n[nH]1 [Example 59, 2-(2-(4-fluorophenyl)-1,3-dioxolan-2-yl)-N-(5-methyl-1H-pyrazol-3-yl)quinazolin-4-amine]	B (0.3 < B ≦ 0.4)
Cc1cc(Nc2nc(C(=O)c3ccc(F)cc3)nc3c(F)cccc23)n[nH]1 [Example 60, (8-fluoro-4-(5-methyl-1H-pyrazol-3-ylamino)quinazolin-2-yl)(4-fluorophenyl)methanone]	A (A ≦ 0.3)
COc1ccccc1C(=O)c1nc(Nc2cc(C)[nH]n2)c2ccccc2n1 [Example 62, (2-methoxyphenyl)(4-(5-methyl-1H-pyrazol-3-ylamino)quinazolin-2-yl)methanone]	A (A ≦ 0.3)
Cc1cc(Nc2nc(C(O)c3cccc(F)c3)nc3ccccc23)n[nH]1 (centres unmarked) [Example 64, (3-fluorophenyl)(4-(5-methyl-1H-pyrazol-3-ylamino)quinazolin-2-yl)methanol]	A (A ≦ 0.3)
Cc1cc(Nc2nc(C(NC=O)c3ccc(F)cc3)nc3ccccc23)n[nH]1 (centres unmarked) [Example 65, N-((4-fluorophenyl)(4-(5-methyl-1H-pyrazol-3-ylamino)quinazolin-2-yl)methyl)formamide]	A (A ≦ 0.3)
Cc1cc(Nc2nc(C(O)c3ccc(F)c(Cl)c3)nc3ccccc23)n[nH]1 (centres unmarked) [Example 67, (3-chloro-4-fluorophenyl)(4-(5-methyl-1H-pyrazol-3-ylamino)quinazolin-2-yl)methanol]	B (0.3 < B ≦ 0.4)
Cc1cc(Nc2nc(C(CC#N)c3ccc(F)cc3)nc3ccccc23)n[nH]1 (centres unmarked) [Example 68, 3-(4-fluorophenyl)-3-(4-(5-methyl-1H-pyrazol-3-ylamino)quinazolin-2-yl)propanenitrile]	A (A ≦ 0.3)
Cc1cc(Nc2nc(C(NC3CC3)c3ccc(F)cc3)nc3ccccc23)n[nH]1 (centres unmarked) [Example 69, 2-((cyclopropylamino)(4-fluorophenyl)methyl)-N-(5-methyl-1H-pyrazol-3-yl)quinazolin-4-amine]	A (A ≦ 0.3)
Cc1cc(Nc2nc(C(CS(C)(=O)=O)c3ccc(F)cc3)nc3ccccc23)n[nH]1 (centres unmarked) [Example 70, 2-(1-(4-fluorophenyl)-2-(methylsulfonyl)ethyl)-N-(5-methyl-1H-pyrazol-3-yl)quinazolin-4-amine]	A (A ≦ 0.3)
Cc1cc(Nc2nc(C(CCN)c3ccc(F)cc3)nc3ccccc23)n[nH]1 (centres unmarked) [Example 71, 2-(3-amino-1-(4-fluorophenyl)propyl)-N-(5-methyl-1H-pyrazol-3-yl)quinazolin-4-amine]	A (A ≦ 0.3)
Cc1cc(Nc2nc(C(O)(c3ccc(F)cc3)c3ccc(F)cc3)nc3ccccc23)n[nH]1 [bis-(4-fluoro-phenyl)-[4-(5-methyl-1H-pyrazol-3-ylamino)-quinazolin-2-yl]-methanol]	A (A ≦ 0.3)
(4-(1H-pyrazol-3-ylamino)quinazolin-2-yl)bis(4-fluorophenyl)methanol [Example 48]	A (A ≦ 0.3)
